{"source": "paper PMC4583408", "binders": {"B1": {"name": "mCherry-tagged Msps 1406–1596 (domain or fragment, UniProt Q9VEZ3 1406-1596)", "chain": "RAKKTKKPTPPPSVDVPAPQRHDSIEIEDAEVGNGCDELPPPDEDGTFDQAPSSQLLLLQQQLQQLQQQAQQQKPSGPFGLDSQVISEIEKDWVRVDQMEQKPLLNVDISSLDEPIKVRPTRAGIHYPQEKFDRLISRQHYMQQTLTTSPSSTAGMTSGVSPYRSPMRLQHQQPQQQLENNIPNLADVLPK"}}, "biological_target": "T1, Orbit 1071-1492-GFP (Drosophila) (UniProt Q9NBD7)", "T1 sequence": "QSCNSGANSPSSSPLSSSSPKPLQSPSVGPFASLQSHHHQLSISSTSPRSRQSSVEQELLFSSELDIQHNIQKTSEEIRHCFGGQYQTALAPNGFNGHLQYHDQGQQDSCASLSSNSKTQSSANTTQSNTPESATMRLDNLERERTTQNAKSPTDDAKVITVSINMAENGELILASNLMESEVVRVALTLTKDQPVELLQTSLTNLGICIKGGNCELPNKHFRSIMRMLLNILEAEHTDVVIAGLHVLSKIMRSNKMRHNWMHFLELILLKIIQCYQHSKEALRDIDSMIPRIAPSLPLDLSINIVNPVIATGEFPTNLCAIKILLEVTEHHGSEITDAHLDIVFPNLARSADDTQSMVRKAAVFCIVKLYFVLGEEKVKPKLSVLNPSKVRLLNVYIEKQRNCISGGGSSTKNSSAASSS", "assay": "co-IP; lysate of S2 cells co-expressing mCherry-tagged Msps 1406–1596 (wild type or mutant) and GFP-tagged pieces of the Orbit TOG3-CT fragment", "note": "No constants are given. Whether binding was seen depends on the method and setting. In cells and extracts the contact can be indirect. Some binding calls cover weakened binding; strength is not graded here. Tags and fused reporters may be left off the sequences shown."}
{"binder": "B1", "values": [{"measurement": "binding", "result": "binds"}]}
